## Screening data, single-dose tests

Sequences of proteins named here, by UniProt entry; tags and fusion partners are left off. Residues count along the entry.
UniProt A4I591, 1-473: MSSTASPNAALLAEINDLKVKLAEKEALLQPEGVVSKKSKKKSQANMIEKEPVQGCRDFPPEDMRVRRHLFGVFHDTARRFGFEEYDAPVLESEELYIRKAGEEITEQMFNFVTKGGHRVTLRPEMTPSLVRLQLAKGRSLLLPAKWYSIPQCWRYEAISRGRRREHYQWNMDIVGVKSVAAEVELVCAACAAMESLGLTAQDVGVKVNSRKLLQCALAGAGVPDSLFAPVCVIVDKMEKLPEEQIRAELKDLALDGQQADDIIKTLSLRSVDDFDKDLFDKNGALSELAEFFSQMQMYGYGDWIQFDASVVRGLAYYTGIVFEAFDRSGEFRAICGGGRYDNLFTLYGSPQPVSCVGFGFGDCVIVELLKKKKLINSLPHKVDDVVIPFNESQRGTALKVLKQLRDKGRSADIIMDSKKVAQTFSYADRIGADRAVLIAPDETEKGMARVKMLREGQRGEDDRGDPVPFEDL
UniProt P9WFT3, whole entry: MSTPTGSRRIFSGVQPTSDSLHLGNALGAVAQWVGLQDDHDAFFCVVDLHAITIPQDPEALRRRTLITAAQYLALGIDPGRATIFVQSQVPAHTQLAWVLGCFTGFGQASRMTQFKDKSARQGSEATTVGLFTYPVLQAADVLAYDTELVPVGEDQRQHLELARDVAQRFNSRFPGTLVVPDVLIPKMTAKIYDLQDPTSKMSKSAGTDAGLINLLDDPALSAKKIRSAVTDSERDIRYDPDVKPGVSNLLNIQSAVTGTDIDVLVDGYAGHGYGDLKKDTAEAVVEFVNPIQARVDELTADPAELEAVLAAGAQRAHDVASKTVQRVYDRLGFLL

From ChEMBL document CHEMBL3988442, “University of Dundee, Small-Polar-MMV Screening Library” (2021).

Results are given as percent effect.
The record does not define 0% and 100%; most values in the screen are far below 50% and negative numbers occur (in some assays of this library far below -100).
Compounds were drawn at random from those tested, without regard to their results.

A: 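Histidine-tRNA ligase, Leishmania infantum (UniProt A4I591). Enzyme assay of histidyl-tRNA synthetase; the read-out is not stated. Compounds at 30 µM. Higher reads as stronger inhibition (inferred: compounds with an IC50 in retests scored well above the rest). The assay is labelled LdHisRS but filed under L. infantum. Size under these conditions: about 69,000 compounds, about 410 of them at 50% or above in at least one test.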
B: 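Whole-parasite assay of Trypanosoma brucei over 72 hours; the read-out is not stated. Tested at 30 µM. The record gives no direction; compounds that gave an IC50 in retests scored well above the rest, so higher reads as stronger inhibition. Values scatter widely below zero; nearly all retest evidence comes from the higher of the two concentrations used. About 64,000 compounds were tested under these conditions; 1.5% (about 940) showed 50% or more at least once.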
C: 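Tryptophan-tRNA ligase, Mycobacterium tuberculosis (UniProt P9WFT3). Enzyme assay of tryptophanyl-tRNA synthetase; the read-out is not stated. Concentration: 10 µM. Higher most likely means stronger inhibition; the record gives no direction and few retests gave an IC50. Of about 65,000 compounds tested this way, about 64 (0.098%) reached 50% or more in at least one test.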

Result for CC(CC(=O)N1CCCS1(=O)=O)c1ccccc1C(F)(F)F (centres undefined) was A: 10.75%; B: -16.35%; C: -1.923%. Result for O=C1C(NCc2nnc3n2CCCC3)CCN1c1ccccc1Cl (centres undefined) was A: -3.67%; C: 2.08%. O=C(c1ccon1)N1CCc2ncnc(NCc3cccnc3)c2CC1 read A: 5%; B: -56%; C: 1.019%. For CC(=O)N1CCC2(C1)CN(C(=O)C1CCOC1)C2 (centres undefined) the result was A: 5.769%; B: 7.703%; C: -1.017%.

For COCCCNC(=O)Nc1ncc(-c2cccc(OC)c2)n1CCOC the result was A: 15.79%; B: -42.31%; C: 0.2045%. Cc1nc(CN(C)C2CCN(Cc3nc4c(F)cccc4[nH]3)C2)no1 (centres undefined) gave A: 9.524%; B: -15.25%; C: -0.576%. Result for COc1ccnc(NC(Cc2ccccc2)C(N)=O)n1 (centres undefined) was A: 12.86%; B: -41.63%; C: -1.264%. For O=C1CC2(CCN(CCO)C2)CN1c1cccc(F)c1 (centres undefined) the result was A: 25%; C: -3.314%.

Clc1ccc(NCc2nnc(C3CC3)o2)cc1Cl gave A: 11.11%; B: 7.311%; C: -4.182%. Result for COCC(=O)N1CCC2(C1)c1ccccc1S(=O)(=O)N2CC1CC1 (centres undefined) was A: 9.434%; B: -28.86%. Cc1cc(N2CCN(c3nc4ccccc4cc3CO)CC2)nc(C)n1 read A: 2.667%; B: 31.15%; C: -1.257%. Result for CSCC(CCO)NC(=O)Nc1cc(Br)ccc1C (centres undefined) was A: 17.31%; B: -93.53%; C: 3.207%.

Result for CC(C)(C)n1cc(C(=O)NCCN2CCOCC2)c2cccnc21 was A: 5.941%; B: -30.29%. O=C(O)C(F)(F)F.O=C1N(Cc2cccnc2)CCC12CCCN(c1ncc(F)cn1)C2 (centres undefined) gave B: -46.83%. Cc1nccc([C@H]2C[C@@H]3CCN(S(C)(=O)=O)C[C@H]3O2)n1 gave A: 9.722%; C: -4.809%. COc1ccc(S(=O)(=O)N2CCc3ccc(Cl)cc32)cc1C(=O)O read A: -1.724%; B: -3.297%; C: 1.251%.

Cc1cc2c(cc1Cl)C=CC1(CCN(CC(=O)NC3CCCC3)CC1)O2 read A: 10.74%; B: -2.35%; C: -5.154%. For CC(=O)c1cc(CN2C[C@@H](NS(=O)(=O)N(C)C)[C@H](C(C)C)C2)cs1 the result was A: -1.333%; B: -27.46%; C: 7.515%. CCc1c(C)n(CC(=O)OC)c2nc3ccccc3n2c1=O gave A: 7.692%; B: -10.06%; C: -5.081%. With CN1CCN(CC(NCc2ccc(F)c(F)c2)c2ccccc2)CC1 (centres undefined) the screen gave A: 2.564%; B: -11.08%; C: -5.425%.

Cc1cc(F)ccc1S(=O)(=O)N1C[C@@H](C)[C@@](C)(O)C1 gave A: 8.571%; B: -22.55%; C: 0.2329%. Cc1ccc(C)c(-n2nnnc2SCN2CCCCC2=O)c1 gave A: 10.53%; B: 3.638%; C: -2.391%. COCCOCCNc1cncc(Br)c1 read A: 45.45%; B: -20.63%; C: 5.218%. Cc1nc(CNC(=O)c2cc(COc3ccccc3F)[nH]n2)n[nH]1 read A: 24.78%; B: -82.7%; C: 1.361%.

COCCNc1nc2c(c(NCC3CCOC3)n1)CCNCC2 (centres undefined) gave A: 13.33%; B: -11.37%; C: -1.443%. With CCc1ccccc1NC(=O)NCc1nnc(SC)n1C the screen gave A: 8.633%; B: 4.576%; C: -4.427%. CCN(C)c1ncnc2c1CCN(C(=O)N1CCCC1)CC2 gave A: 11.32%; C: -1.994%. Cc1cnn(CC2CCCN2C(=O)CCc2c(C)nc(C)[nH]c2=O)c1 (centres undefined) read A: 5.479%; B: -7.42%; C: -0.8482%.

Cc1noc([C@@H]2C[C@H]3OCC[C@H]3N(Cc3sccc3C)C2)n1 gave A: 26.47%; C: -0.08231%. NC(=O)CCN1C(=O)CC(Cc2ccc(F)cc2)C1=O (centres undefined) read A: 16.13%; B: -44.15%; C: -1.488%. Result for Cc1cnc(N2CCC3(CC2)CC3CNC(=O)C2CCC2)nc1 (centres undefined) was A: 15.79%; C: 3.787%. Result for CC(C)C(C)NC(=O)Nc1ccc(CS(=O)(=O)C(C)C)cc1 (centres undefined) was A: 4.11%; B: -15.16%; C: 2.375%.